Data reported in the supplement of paper PMC7661543.
The effect of the compound repeats well; differences between the knockouts mostly do not.

Tested on: BT-20
Assay: relative cell number vs DMSO control (72 h) (% of DMSO); higher = less growth inhibition (more cells)
Experimental: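 QMAP-Seq: a pool of 5 breast cancer cell lines (ZR-75-1, SKBR3, HCC-38, MDA-MB-231, BT-20), each carrying 12 doxycycline-inducible Cas9 sgRNA perturbations (11 knockouts plus non-targeting sgNT), was treated with compounds for 72 h at four 10-fold doses (10 nM-10 uM or 1 nM-1 uM range). Barcodes were amplified and sequenced, and cell number was interpolated from 293T spike-in standard curves. The result is expressed as % of the median of DMSO wells. Two biological replicates.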

Cc1cn(-c2cc(NC(=O)c3ccc(C)c(Nc4nccc(-c5cccnc5)n4)c3)cc(C(F)(F)F)c2)cn1 [Nilotinib]
Conditions | relative cell number
sgRNA knockout: sgATF3, 10 nM | 90.9
sgRNA knockout: sgATF3, 100 nM | 98.4
sgRNA knockout: sgATF3, 1000 nM | 99.3
sgRNA knockout: sgATF3, 10000 nM | 61.9
sgRNA knockout: sgATF4, 10 nM | 97.6
sgRNA knockout: sgATF4, 100 nM | 99.7
sgRNA knockout: sgATF4, 1000 nM | 91.4
sgRNA knockout: sgATF4, 10000 nM | 56.7
sgRNA knockout: sgATF6, 10 nM | 90.3
sgRNA knockout: sgATF6, 100 nM | 97.4
sgRNA knockout: sgATF6, 1000 nM | 122.8
sgRNA knockout: sgATF6, 10000 nM | 74.8
sgRNA knockout: sgATG7, 10 nM | 99.5
sgRNA knockout: sgATG7, 100 nM | 102
sgRNA knockout: sgATG7, 1000 nM | 104
sgRNA knockout: sgATG7, 10000 nM | 62
sgRNA knockout: sgERN1, 10 nM | 87.5
sgRNA knockout: sgERN1, 100 nM | 104
sgRNA knockout: sgERN1, 1000 nM | 112
sgRNA knockout: sgERN1, 10000 nM | 60.8
sgRNA knockout: sgHSF1, 10 nM | 106
sgRNA knockout: sgHSF1, 100 nM | 96.4
sgRNA knockout: sgHSF1, 1000 nM | 100
sgRNA knockout: sgHSF1, 10000 nM | 71.5
sgRNA knockout: sgHSF2, 10 nM | 94.6
sgRNA knockout: sgHSF2, 100 nM | 85.8
sgRNA knockout: sgHSF2, 1000 nM | 95.9
sgRNA knockout: sgHSF2, 10000 nM | 68.3
sgRNA knockout: sgKEAP1, 10 nM | 92.9
sgRNA knockout: sgKEAP1, 100 nM | 94.1
sgRNA knockout: sgKEAP1, 1000 nM | 102
sgRNA knockout: sgKEAP1, 10000 nM | 69.6
sgRNA knockout: sgNFE2L2, 10 nM | 104
sgRNA knockout: sgNFE2L2, 100 nM | 96.5
sgRNA knockout: sgNFE2L2, 1000 nM | 107
sgRNA knockout: sgNFE2L2, 10000 nM | 73.3
sgRNA knockout: sgSLC35F2, 10 nM | 98.2
sgRNA knockout: sgSLC35F2, 100 nM | 87.6
sgRNA knockout: sgSLC35F2, 1000 nM | 99.8
sgRNA knockout: sgSLC35F2, 10000 nM | 76.1
sgRNA knockout: sgXBP1, 10 nM | 107
sgRNA knockout: sgXBP1, 100 nM | 102
sgRNA knockout: sgXBP1, 1000 nM | 101.8
sgRNA knockout: sgXBP1, 10000 nM | 61.1

O=C(c1cc(Cc2n[nH]c(=O)c3ccccc23)ccc1F)N1CCN(C(=O)C2CC2)CC1 [Olaparib]
Conditions | relative cell number
sgRNA knockout: sgATF3, 10 nM | 89.7
sgRNA knockout: sgATF3, 100 nM | 94.7
sgRNA knockout: sgATF3, 1000 nM | 83.6
sgRNA knockout: sgATF3, 10000 nM | 73.3
sgRNA knockout: sgATF4, 10 nM | 89.2
sgRNA knockout: sgATF4, 100 nM | 101
sgRNA knockout: sgATF4, 1000 nM | 83.5
sgRNA knockout: sgATF4, 10000 nM | 78
sgRNA knockout: sgATF6, 10 nM | 91.16
sgRNA knockout: sgATF6, 100 nM | 111
sgRNA knockout: sgATF6, 1000 nM | 83.2
sgRNA knockout: sgATF6, 10000 nM | 88
sgRNA knockout: sgATG7, 10 nM | 86.96
sgRNA knockout: sgATG7, 100 nM | 106
sgRNA knockout: sgATG7, 1000 nM | 83
sgRNA knockout: sgATG7, 10000 nM | 86.4
sgRNA knockout: sgERN1, 10 nM | 94.8
sgRNA knockout: sgERN1, 100 nM | 105
sgRNA knockout: sgERN1, 1000 nM | 71.9
sgRNA knockout: sgERN1, 10000 nM | 76.3
sgRNA knockout: sgHSF1, 10 nM | 99.4
sgRNA knockout: sgHSF1, 100 nM | 86.4
sgRNA knockout: sgHSF1, 1000 nM | 85.92
sgRNA knockout: sgHSF1, 10000 nM | 91.5
sgRNA knockout: sgHSF2, 10 nM | 98.6
sgRNA knockout: sgHSF2, 100 nM | 111
sgRNA knockout: sgHSF2, 1000 nM | 86
sgRNA knockout: sgHSF2, 10000 nM | 97
sgRNA knockout: sgKEAP1, 10 nM | 87.8
sgRNA knockout: sgKEAP1, 100 nM | 96.1
sgRNA knockout: sgKEAP1, 1000 nM | 82.2
sgRNA knockout: sgKEAP1, 10000 nM | 79.1
sgRNA knockout: sgNFE2L2, 10 nM | 103
sgRNA knockout: sgNFE2L2, 100 nM | 109
sgRNA knockout: sgNFE2L2, 1000 nM | 98.7
sgRNA knockout: sgNFE2L2, 10000 nM | 88.3
sgRNA knockout: sgSLC35F2, 10 nM | 93.1
sgRNA knockout: sgSLC35F2, 100 nM | 99.4
sgRNA knockout: sgSLC35F2, 1000 nM | 76.5
sgRNA knockout: sgSLC35F2, 10000 nM | 94.9
sgRNA knockout: sgXBP1, 10 nM | 96.34
sgRNA knockout: sgXBP1, 100 nM | 100
sgRNA knockout: sgXBP1, 1000 nM | 91.3
sgRNA knockout: sgXBP1, 10000 nM | 77.3

CCCS(=O)(=O)Nc1ccc(F)c(C(=O)c2c[nH]c3ncc(Cl)cc23)c1F [PLX4720]
Conditions | relative cell number
sgRNA knockout: sgATF3, 10 nM | 112
sgRNA knockout: sgATF3, 100 nM | 85.2
sgRNA knockout: sgATF3, 1000 nM | 97.6
sgRNA knockout: sgATF3, 10000 nM | 102
sgRNA knockout: sgATF4, 10 nM | 119
sgRNA knockout: sgATF4, 100 nM | 102
sgRNA knockout: sgATF4, 1000 nM | 104
sgRNA knockout: sgATF4, 10000 nM | 100
sgRNA knockout: sgATF6, 10 nM | 105
sgRNA knockout: sgATF6, 100 nM | 96.5
sgRNA knockout: sgATF6, 1000 nM | 91.8
sgRNA knockout: sgATF6, 10000 nM | 101
sgRNA knockout: sgATG7, 10 nM | 104
sgRNA knockout: sgATG7, 100 nM | 95.3
sgRNA knockout: sgATG7, 1000 nM | 112
sgRNA knockout: sgATG7, 10000 nM | 120
sgRNA knockout: sgERN1, 10 nM | 104
sgRNA knockout: sgERN1, 100 nM | 98.3
sgRNA knockout: sgERN1, 1000 nM | 106
sgRNA knockout: sgERN1, 10000 nM | 105.4
sgRNA knockout: sgHSF1, 10 nM | 100.5
sgRNA knockout: sgHSF1, 100 nM | 101
sgRNA knockout: sgHSF1, 1000 nM | 96.9
sgRNA knockout: sgHSF1, 10000 nM | 112
sgRNA knockout: sgHSF2, 10 nM | 113
sgRNA knockout: sgHSF2, 100 nM | 74.3
sgRNA knockout: sgHSF2, 1000 nM | 109
sgRNA knockout: sgHSF2, 10000 nM | 94.3
sgRNA knockout: sgKEAP1, 10 nM | 101
sgRNA knockout: sgKEAP1, 100 nM | 91.3
sgRNA knockout: sgKEAP1, 1000 nM | 96.9
sgRNA knockout: sgKEAP1, 10000 nM | 109
sgRNA knockout: sgNFE2L2, 10 nM | 99.5
sgRNA knockout: sgNFE2L2, 100 nM | 72.6
sgRNA knockout: sgNFE2L2, 1000 nM | 86.7
sgRNA knockout: sgNFE2L2, 10000 nM | 106
sgRNA knockout: sgSLC35F2, 10 nM | 105
sgRNA knockout: sgSLC35F2, 100 nM | 89
sgRNA knockout: sgSLC35F2, 1000 nM | 96.5
sgRNA knockout: sgSLC35F2, 10000 nM | 109
sgRNA knockout: sgXBP1, 10 nM | 103
sgRNA knockout: sgXBP1, 100 nM | 98.7
sgRNA knockout: sgXBP1, 1000 nM | 102
sgRNA knockout: sgXBP1, 10000 nM | 106
